From PMC12136057, “Structural characterization of the ABC transporter DppABCDF in Escherichia coli reveals insights into dipeptide acquisition” (PLOS Biology, 2025)
Substitutions are numbered along the chain they refer to. Names may count otherwise. These are yes or no findings as the source states them, for the method shown. For part of these data: Binding seen in cells or lysates may run through a third protein. Some binding calls cover weakened binding; strength is not graded here. For part of these data: Tags and fused reporters may be left off the sequences shown. Values belong to the binder of their own block, whether it stands above or below them.

Legend:
[1] = target: T1, DppF with C-terminal Strep-tag II (E. coli) (UniProt P37313); assay: pull-down; affinity purification (Strep-tag II on DppF) of co-expressed DppBCDF variants, 12% SDS-PAGE
T1 sequence: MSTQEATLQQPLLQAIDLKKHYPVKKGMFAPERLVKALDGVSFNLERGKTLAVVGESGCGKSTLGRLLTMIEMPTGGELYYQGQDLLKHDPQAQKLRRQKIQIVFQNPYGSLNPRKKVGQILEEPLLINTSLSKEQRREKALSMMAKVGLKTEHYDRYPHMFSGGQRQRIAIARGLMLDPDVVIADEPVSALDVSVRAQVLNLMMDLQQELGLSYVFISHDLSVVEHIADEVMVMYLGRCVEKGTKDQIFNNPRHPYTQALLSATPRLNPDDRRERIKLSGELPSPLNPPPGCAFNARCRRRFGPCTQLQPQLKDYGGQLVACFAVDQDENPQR

DppB (E. coli) [2] = target: T2, DppB (E. coli) (UniProt P0AEF8); assay: cryo-EM structure; apo DppBCDF, co-expressed and co-purified complex in 0.006% GDN with DTT; 3.2 Å; inward-facing; both purified
T2 sequence: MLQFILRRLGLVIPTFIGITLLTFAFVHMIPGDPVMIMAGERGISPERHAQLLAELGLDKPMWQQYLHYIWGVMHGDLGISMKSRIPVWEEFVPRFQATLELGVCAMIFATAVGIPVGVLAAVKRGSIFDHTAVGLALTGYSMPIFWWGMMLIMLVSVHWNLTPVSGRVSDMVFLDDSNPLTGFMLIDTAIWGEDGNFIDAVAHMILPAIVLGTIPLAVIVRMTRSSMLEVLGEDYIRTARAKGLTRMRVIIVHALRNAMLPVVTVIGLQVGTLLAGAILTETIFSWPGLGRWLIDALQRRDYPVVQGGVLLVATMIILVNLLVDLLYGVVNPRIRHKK

DppB (E. coli) [3] = target: T2, DppB (E. coli); assay: cryo-EM structure; DppBCD(E179Q)F(E187Q), co-purified complex, 2 mM ATPγS and 2 mM MgCl2, 30 min on ice; inward-facing; both purified
DppB (E. coli) [4] = target: T2, DppB (E. coli); assay: cryo-EM structure; DppBCD(E179Q)F(E187Q), co-purified complex, 2 mM AMPPNP and 2 mM MgCl2, 30 min on ice; inward-facing; both purified
DppB (E. coli) [5] = target: T2, DppB (E. coli); assay: cryo-EM structure; DppA-His co-expressed and co-purified (Ni-NTA) with DppBCD(E179Q)F(E187Q), 2 mM ATPγS and 2 mM MgCl2, 30 min on ice; 2.73 Å; outward-facing; both purified
DppC (E. coli) [6] = target: T3, DppC (E. coli) (UniProt P0AEG1); assay: cryo-EM structure; DppBCD(E179Q)F(E187Q), co-purified complex, 2 mM ATPγS and 2 mM MgCl2, 30 min on ice; inward-facing; both purified
T3 sequence: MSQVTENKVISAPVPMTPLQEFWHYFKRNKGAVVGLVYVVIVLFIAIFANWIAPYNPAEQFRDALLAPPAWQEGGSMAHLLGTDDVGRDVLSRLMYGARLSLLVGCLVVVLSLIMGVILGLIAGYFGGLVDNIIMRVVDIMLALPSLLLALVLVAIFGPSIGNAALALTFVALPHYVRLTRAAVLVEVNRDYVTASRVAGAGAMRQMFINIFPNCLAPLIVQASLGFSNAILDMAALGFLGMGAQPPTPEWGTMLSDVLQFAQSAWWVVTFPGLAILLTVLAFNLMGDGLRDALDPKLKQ

DppC (E. coli) [7] = target: T3, DppC (E. coli); assay: cryo-EM structure; DppBCD(E179Q)F(E187Q), co-purified complex, 2 mM AMPPNP and 2 mM MgCl2, 30 min on ice; inward-facing; both purified
DppC (E. coli) [8] = target: T3, DppC (E. coli); assay: cryo-EM structure; DppA-His co-expressed and co-purified (Ni-NTA) with DppBCD(E179Q)F(E187Q), 2 mM ATPγS and 2 mM MgCl2, 30 min on ice; 2.73 Å; outward-facing; both purified
DppC (E. coli) [9] = target: T3, DppC (E. coli); assay: cryo-EM structure; apo DppBCDF, co-expressed and co-purified complex in 0.006% GDN with DTT; 3.2 Å; inward-facing; both purified
[10] = target: T4, DppBCDF translocator (wild type) (E. coli) (UniProt P0AEF8+P0AEG1+P0AAG0+P37313); assay: pull-down; attempt to co-purify the wild-type DppABCDF complex using tagged DppA and DppBCDF
T4 sequence 1: T2 sequence
T4 sequence 2: T3 sequence
T4 sequence 3: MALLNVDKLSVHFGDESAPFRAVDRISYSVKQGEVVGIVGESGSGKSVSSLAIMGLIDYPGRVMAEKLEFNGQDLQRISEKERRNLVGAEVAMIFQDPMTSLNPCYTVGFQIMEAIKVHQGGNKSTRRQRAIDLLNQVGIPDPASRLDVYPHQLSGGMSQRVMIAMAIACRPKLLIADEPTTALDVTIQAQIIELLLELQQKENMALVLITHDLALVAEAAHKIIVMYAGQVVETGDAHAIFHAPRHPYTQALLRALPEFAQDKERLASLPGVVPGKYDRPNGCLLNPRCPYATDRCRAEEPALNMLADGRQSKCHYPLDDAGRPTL
T4 sequence 4: T1 sequence

[11] = target: T4, DppBCDF translocator (wild type) (E. coli); assay: SEC; DppA and DppBCDF purified separately, mixed and run on size-exclusion chromatography; both purified
[12] = target: T5, DppBCD^E179QF^E187Q (E. coli) (UniProt P0AEF8+P0AEG1+P0AAG0+P37313); assay: cryo-EM structure; DppA-His co-expressed and co-purified (Ni-NTA) with DppBCD(E179Q)F(E187Q), 2 mM ATPγS and 2 mM MgCl2, 30 min on ice; 2.73 Å; outward-facing; both purified
T5 sequence 1: T2 sequence
T5 sequence 2: T3 sequence
T5 sequence 3: T4 sequence 3 with E179Q
T5 sequence 4: T1 sequence with E187Q

[13] = target: T5, DppBCD^E179QF^E187Q (E. coli); assay: pull-down; affinity purification of DppBCD(E179Q)F(E187Q) from E. coli; endogenous DppA found with it on the gel

binding [1]: binds
binding (DppB (E. coli) [2]): binds
B1: DppD (enzyme, UniProt P0AAG0 1-327)
chain: T4 sequence 3

binding (DppB (E. coli) [3]): binds
binding (DppB (E. coli) [4]): binds
binding (DppB (E. coli) [5]): binds
B2: DppD^E179Q (enzyme, UniProt P0AAG0 1-327)
chain: T4 sequence 3 with E179Q

binding (DppC (E. coli) [6]): binds
binding (DppC (E. coli) [7]): binds
binding (DppC (E. coli) [8]): binds
B3: DppF^E187Q with C-terminal Strep-tag (enzyme, UniProt P37313 1-334)
chain: T1 sequence with E187Q

binding (DppC (E. coli) [9]): binds
B4: DppF with C-terminal Strep-tag II (enzyme, UniProt P37313 1-334)
chain: T1 sequence

binding [10]: no binding
binding [11]: no binding
binding (DppB (E. coli) [5]): binds
binding [12]: binds
binding (DppC (E. coli) [8]): binds
B5: DppA with a His-tag fused to the C-terminus (protein, UniProt P23847 29-535)
chain: KTLVYCSEGSPEGFNPQLFTSGTTYDASSVPLYNRLVEFKIGTTEVIPGLAEKWEVSEDGKTYTFHLRKGVKWHDNKEFKPTRELNADDVVFSFDRQKNAQNPYHKVSGGSYEYFEGMGLPELISEVKKVDDNTVQFVLTRPEAPFLADLAMDFASILSKEYADAMMKAGTPEKLDLNPIGTGPFQLQQYQKDSRIRYKAFDGYWGTKPQIDTLVFSITPDASVRYAKLQKNECQVMPYPNPADIARMKQDKSINLMEMPGLNVGYLSYNVQKKPLDDVKVRQALTYAVNKDAIIKAVYQGAGVSAKNLIPPTMWGYNDDVQDYTYDPEKAKALLKEAGLEKGFSIDLWAMPVQRPYNPNARRMAEMIQADWAKVGVQAKIVTYEWGEYLKRAKDGEHQTVMMGWTGDNGDPDNFFATLFSCAASEQGSNYSKWCYKPFEDLIQPARATDDHNKRVELYKQAQVVMHDQAPALIIAHSTVFEPVRKEVKGYVVDPLGKHHFENVSIE

binding [13]: binds weakly
B6: endogenous DppA (protein, UniProt P23847 29-535)
chain: B5 chain

binding [1]: binds
binding (DppB (E. coli) [2]): binds
binding (DppB (E. coli) [3]): binds
binding (DppB (E. coli) [4]): binds
binding (DppB (E. coli) [5]): binds
B7: DppC (protein, UniProt P0AEG1 1-300)
chain: T3 sequence

binding [1]: binds
B8: DppB (protein, UniProt P0AEF8 1-339)
chain: T2 sequence
